Data on 42 sequences can be found in article PMC7819943, “Rice protein-binding microarrays: a tool to detect cis-acting elements near promoter regions in rice”.

By UniProt entry, the sequences of proteins in these tests, tags left out.
UniProt Q0JBA9, entry or part of it: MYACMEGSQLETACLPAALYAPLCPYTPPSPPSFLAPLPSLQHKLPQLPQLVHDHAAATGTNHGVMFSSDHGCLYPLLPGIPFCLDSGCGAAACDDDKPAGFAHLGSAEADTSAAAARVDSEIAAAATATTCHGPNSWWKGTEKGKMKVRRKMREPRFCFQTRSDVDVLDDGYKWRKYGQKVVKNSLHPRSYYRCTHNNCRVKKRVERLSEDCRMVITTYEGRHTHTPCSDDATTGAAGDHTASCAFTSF

This is one part of the list.

The assay deals with OsWRKY34 (Oryza sativa, UniProt Q0JBA9 1-250). As to the kind of experiment: protein-binding microarray (RPBM); PBS, 2% BSA, 51.3 ng/ul salmon testes DNA, 50 uM zinc acetate, 200 nM TF, 25 C, 1 h; high values mean tight binding. Conditions: protein: recombinant; tags: N-terminal polyhistidine and DsRed monomer fusion (pET32a); label: CyDye5-dUTP incorporated in the synthesized complementary strand; 3' TTTTT single-stranded linker to array surface; dsDNA, one strand shown. A digest of the protocol:
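The binding signal is fluorescence intensity per array feature (arbitrary units). Readings came from an Axon 4000B scanner after a washed, 2% BSA-blocked, double-stranded custom Agilent array had been incubated for 1 h at 25 °C with 200 nM protein and 50 µM zinc acetate. The protein was a Ni–NTA-purified transcription factor fused N-terminally to polyhistidine and DsRed, expressed in E. coli BL21-CodonPlus.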
Take “CTTTGTTTGATCGTATCTCTGGCGCTTTGGTATCAGTTCCCGGAGTCACCTAGTGCAG”: the binding signal is 8430 fluorescence intensity (a.u.). To “AAGGCTGTGTCGTGTTGTTCGGGCCGCATCTTGGCCCTTCCGGAGTCACCTAGTGCAG” belongs 8150 fluorescence intensity (a.u.); to “GAACATCTTTTCTTCTACTTGTTTGATGGCAGAGACTTGACGGAGTCACCTAGTGCAG”, 8910 fluorescence intensity (a.u.); to “ATCTACTATTACTAGCTGCTAATTAACAACGCACTAACTACGGAGTCACCTAGTGCAG”, 8360 fluorescence intensity (a.u.).

In the case of “CGGCCCATATCCCATATCTCATCGTACTCTTCCTCAATTCCGGAGTCACCTAGTGCAG”, the binding signal is 10500 fluorescence intensity (a.u.). With “TCCGGAGTCTGCACCCATCTTCCCCACGTGCGCGCCCATCCGGAGTCACCTAGTGCAG”, the binding signal is 8980 fluorescence intensity (a.u.). Regarding “CGTATTCCAGTGAGTTGGTTTTGAAAGGCCCAGCCGGCCCCGGAGTCACCTAGTGCAG”, the binding signal is 8260 fluorescence intensity (a.u.). The figure for “TATCCGCATCTCCCATCACATTAAGTTTTCAATGATTTTTCGGAGTCACCTAGTGCAG” is 9830 fluorescence intensity (a.u.); for “TCCTTGTCCATCTTTGTCCAGGCCTCGCGTTCCTCGGTTCCGGAGTCACCTAGTGCAG” it is 14200 fluorescence intensity (a.u.).

Turning to “GCCTTCATTTCTTTGTATTCCAGTCTACAGAGCATAAATGCGGAGTCACCTAGTGCAG”, the binding signal was 8120 fluorescence intensity (a.u.). To “GCAAGAGCTCTCACACCCTTGTGCACTTAGTTTATCTAGTCGGAGTCACCTAGTGCAG” belongs 12000 fluorescence intensity (a.u.); to “CTGAGAAATGCTTGGTGTGTTTGCATGTTGTTCTTCGTCACGGAGTCACCTAGTGCAG”, 8160 fluorescence intensity (a.u.); to “AGGAGAGAAGTTTTTTGGTAGAGCTTTGGAAAATTCCACACGGAGTCACCTAGTGCAG”, 8620 fluorescence intensity (a.u.). To “CCTTCGCAGTAACGTAATTGTGTCTGGTCAACGCACAATTCGGAGTCACCTAGTGCAG” belongs 11300 fluorescence intensity (a.u.). Turning to “ATCTTTGCGGCGCCTCCTATTCCGTCAAGGCAGGCCGCAGCGGAGTCACCTAGTGCAG”, the binding signal is 9260 fluorescence intensity (a.u.). For the sequence “TAATCTTTCTTACTACTTTTTTTTCAATTTTTTATGACTTCGGAGTCACCTAGTGCAG”, the binding signal was 8450 fluorescence intensity (a.u.).

As to “TTATTTATTGTGGCCTACCTCTTGTCACCGCTGCTAGCTCCGGAGTCACCTAGTGCAG”, the binding signal was 10800 fluorescence intensity (a.u.). Consider “CCCTCGACACCCAGATGTTCTGGTTCCGCACCCACCTGCACGGAGTCACCTAGTGCAG”, for which the binding signal is 11200 fluorescence intensity (a.u.). The figure for “CCTATTTTTTCTTATATATATATATATATATATATATAAACGGAGTCACCTAGTGCAG” is 9240 fluorescence intensity (a.u.). To “GCGATCTCCATCGCAGCGGAGGGGAGGGGAGGGGATCCTGCGGAGTCACCTAGTGCAG” belongs 10300 fluorescence intensity (a.u.). For “CCCTCATCTTGTCACCTTACAAAATCGTCCTTGAACCACACGGAGTCACCTAGTGCAG”, the binding signal was 9230 fluorescence intensity (a.u.). To “AATACCGTATGCGTTCACCTCAATCAATTGGTTGATTTTACGGAGTCACCTAGTGCAG” belongs 9060 fluorescence intensity (a.u.); to “ACTCTTGGTATGTTCTGCTTAGATACACTGTGTTGCTTGCCGGAGTCACCTAGTGCAG”, 9380 fluorescence intensity (a.u.). To “TTGTGCCTCAAGCCCTAACCTAGCCCAACGTCATTCCCGGCGGAGTCACCTAGTGCAG” belongs 8930 fluorescence intensity (a.u.). To “GAACACATGTTTGACCATTCGCTTTATTTAAAAATTTTATCGGAGTCACCTAGTGCAG” belongs 8930 fluorescence intensity (a.u.); to “TTGCGTGCTGTTCATCTTCTTCCTCTGTCATTGCCTCCTCCGGAGTCACCTAGTGCAG”, 10900 fluorescence intensity (a.u.). With “TGTGTGACGTTAACACGCTACTATTCCCTTCTGCCTAATCCGGAGTCACCTAGTGCAG”, the binding signal was 8250 fluorescence intensity (a.u.).

On to “GCGACCAACCACGAACCACGCCACACGCTCGCCGACTTCTCGGAGTCACCTAGTGCAG”, for which the binding signal is 9640 fluorescence intensity (a.u.). The figure for “AGCACCATCCTCATCGCCGGCCGCGACGACATCTCCGAGGCGGAGTCACCTAGTGCAG” is 9940 fluorescence intensity (a.u.); for “TGGTGGTGTGTTTGCGCAGACGTTTTTCATATAATTGGTTCGGAGTCACCTAGTGCAG” it is 11000 fluorescence intensity (a.u.); for “ACTATTGCCGTTTGTTGGTTTAGGAAAGTGGTATTCCTATCGGAGTCACCTAGTGCAG” it is 8660 fluorescence intensity (a.u.).

On to “GCTCCGCCGCCGCCGCCGTTCAACCGCTCGTCTCCTCCTCCGGAGTCACCTAGTGCAG”, for which the binding signal is 11800 fluorescence intensity (a.u.).

For the sequence “CTCACTGCTGCATTCCGCATTCCTCGCTCGCTCACCTCACCGGAGTCACCTAGTGCAG”, the binding signal is 9640 fluorescence intensity (a.u.). To “ACGTATCTCTGTTTGATAAAATGCCCACATGTATCCTGTACGGAGTCACCTAGTGCAG” belongs 8270 fluorescence intensity (a.u.); to “GCTAGGTGTGTTTGGTTGCCTGCATAGTCCTTGGCTCGAACGGAGTCACCTAGTGCAG”, 9030 fluorescence intensity (a.u.); to “AGGACCTACCCTGACCAGATTGTGATGAAGATGTTTCTCTCGGAGTCACCTAGTGCAG”, 8420 fluorescence intensity (a.u.). Take “CACCTGGTTCAGTCTCTACCGTCCATCTGCGTCTCTCCTACGGAGTCACCTAGTGCAG”: the binding signal was 9690 fluorescence intensity (a.u.). The figure for “CATTTTTGTTCGGTTGTGTTTTCCTTTTTTTTCCGGGTTTCGGAGTCACCTAGTGCAG” is 12400 fluorescence intensity (a.u.); for “CATTCTATTCAGCAAAAGCTGTTTGCCACTTTGCCGGTTCCGGAGTCACCTAGTGCAG” it is 9540 fluorescence intensity (a.u.). To “GGTTATTATATCTACAAAATTCTTGCACACCTCAGCAATGCGGAGTCACCTAGTGCAG” belongs 8090 fluorescence intensity (a.u.). To “AGAGTTCTTATCCTAGTTTTTCCAACTCACTTATCTCGTTCGGAGTCACCTAGTGCAG” belongs 10900 fluorescence intensity (a.u.); to “CCATTGCCGCACCTCATCACCTCCTCGTCTTCTTCTTCCACGGAGTCACCTAGTGCAG”, 9220 fluorescence intensity (a.u.).
